Measured values taken from patent publication US20110311544A1.
Results are given in words; binding and its absence hold for the method and conditions named. Some results given as binding are weak or reduced against the parent protein; the word gives no strength.

Key:
[1] = target: CD71 (transferrin receptor) on human tumour cell lines (human) (UniProt P02786); experiment: quantitative flow cytometry on A375 cells
[2] = target: CD71 (transferrin receptor) on human tumour cell lines (human) (UniProt P02786); experiment: quantitative indirect immunofluorescence flow cytometry (Qifikit) on cell lines
[3] = target: CD71 (transferrin receptor) on human tumour cell lines (human) (UniProt P02786); experiment: tissue distribution and immunoprecipitation
[4] = target: CD71 (transferrin receptor) on human tumour cell lines (human) (UniProt P02786); experiment: cross-blocking on A375 cells, flow cytometry

Measured: binding

B1: anti-CD71 mAb BA120g (antibody, V domains shown)
VH: EVQLQQSGTVLARPGASVKMSCKASGYSFTIYWIHWVKQRPGQGLEWIATIYPGNSDIIYNQKFKGKAKLTAVTSASTAYMELSSLTNEASAVYYCTRQGYDYYAMDYWGQGTSVTVSS
VL: DVQITQSPSYLAASPGETIIINCRASKSISKYLAWYQEKPGKTNKLLIYSGSTLQSGIPSRFSGSGSGTDFTLTISSLEPQDFAMYYCQQHNEYPWTFGGGTKLEIKR
binds: all assays above
